These are literature values, as cited in patent US9176114B2, “Cell culture model for acquired chemoresistance of chronic myelogenous leukemia and related methods for identifying agents to overcome resistance” (CITY OF HOPE, priority 2007, dated 2015).

Each structure is given as a SMILES string. Structures can show the parent of a compound that is named as a salt.

One may read the IC50 as the concentration needed to halve the response being measured.

The test system of this data set is K562 cells. Particulars: read-out: IC50 of apoptosis induction; STI-571 alone; cited from earlier work.

As for `Cc1ccc(NC(=O)c2ccc(CN3CCN(C)CC3)cc2)cc1Nc1nccc(-c2cccnc2)n1` [STI-571, Imatinib mesylate], the IC50 was around 500 nM.
